Measured data: PubChem BioAssay AID1259254 (NCATS, 2017)
Aim: 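Finding genes that stop cells copying their DNA twice in one cycle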 (primary screen). System: human HCT116 colorectal cancer cells. Reagents: single siRNA against human genes. Timing: 3 days. Measurement: 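Imaged Hoechst DNA stain sorts each cell into a cycle phase by DNA amount; per plate, G2 fraction set to 0% for non-targeting and 100% for GMNN siRNA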. Scale: G2 robust z-score: higher = more G2 cells, more excess DNA replication. Rule for the call: 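Active siRNAs have a G2 robust z of 5 or more median absolute deviations over the median, which in these data means about 38% or higher of GMNN control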.
Here is a random part of about 59,000 deposited reagents. About 1,550 of them (2.6%) count as active. 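G2 share is only a proxy for re-replication; each gene was hit by three separate siRNAs, and active genes were retested.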 Entries without a mark were called inactive. Further read-outs or replicates are left out here. Not given: the amount of reagent.

For CCER1 [SID160760632] the deposit lists G2 robust z-score -0.0782.
With knock-down of CCER1 [SID160760633], the screen gave G2 robust z-score 0.541.
CCER1 [SID160760634] showed G2 robust z-score -0.33.
SHANK1 [SID160739806] scored G2 robust z-score -0.907.
Against SHANK1 [SID160739807], the values are G2 robust z-score -0.89.
SHANK1 [SID160739808] showed G2 robust z-score -0.799.
PAPSS2 [SID160721377] showed G2 robust z-score -0.411.
After knock-down of PAPSS2 [SID160721379], the record shows G2 robust z-score -1.03.
PAPSS2 [SID160721380] gave G2 robust z-score -0.198.
With knock-down of ADSS2 [SID160720549], the screen gave G2 robust z-score -0.959.
Silencing of ADSS2 [SID160720654] gave: G2 robust z-score 0.611.
For ADSS2 [SID160720758], the values are G2 robust z-score -1.15.

2 of these entries, set out differently.
gene	PubChem SID	G2 robust z-score
ADSS2	SID160720549	-0.959
ADSS2	SID160720654	0.611
